Publication PMC4063695, “Design of Embedded-Hybrid Antimicrobial Peptides with Enhanced Cell Selectivity and Anti-Biofilm Activity” (PLoS ONE, 2014)

Tested on: human red blood cells (hRBC)
Assay: Hemolytic activity
Format: cell-based
Conditions: 512 µM used for MHC >[…]
Protocol: The amount of released hemoglobin by the lysis of erythrocytes was measured for hemolytic activity of peptides. Human erythrocytes were obtained from a healthy donor with written informed consent. The experimental protocol was reviewed and approved by the ethics committee of the Northeast Agricultural University Hospital. The measurement was based on a previously described method. The fresh hRBCs were washed three times by centrifugation (1000 g, 5 min, 4°C) in PBS (pH 7.4), and then resuspended in PBS to obtain the erythrocyte with a dilution of approximately 1% (v/v). Then, 50 µL of hRBCs solution was incubated with 50 µL of different concentrations of the peptides dissolved in PBS for 1 h at 37°C, before centrifugation (1000 g, 5 min, 4°C) again. The absorbance of the supernatants was measured at optical density (OD) 492 nm. […] The control samples for 0% and 100% hemolysis consisted of hRBCs in PBS (Ablank) only and in 0.1% Triton X-100 (Atriton), respectively. The percentage of hemolysis was calculated according to the following equation: [drawing 3]

Substance | Therapeutic index (ratio of MHC to GM)
FRIRVRV-NH2 [FV7, reference compound] | 17.7
RFRRLFRIRVRVLKKI-NH2 [R-FV-I16] | 64
RFRRLRKKTRKRLKKI-NH2 [RI16] | 4.2
RKKTRKR-NH2 [RR7] | 2

No end group written: not given here.
